Two substances from paper doi:10.1101/2022.11.08.515568 can be followed below.

This assay addresses T1, FliW-T25 (Clostridioides difficile) (UniProt Q18CX4).
T1 sequence: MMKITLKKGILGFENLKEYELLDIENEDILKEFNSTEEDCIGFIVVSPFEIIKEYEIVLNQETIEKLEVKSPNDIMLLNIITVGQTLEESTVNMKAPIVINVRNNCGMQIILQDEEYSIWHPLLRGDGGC
The assay can be described thus: two-hybrid.

Results are given in words; binding and its absence hold for the method and conditions named. Binding calls can cover weak binding; strength is not graded here.

Take FliC-T18 (Clostridioides difficile): the binding result is listed as “binds”. Turning to TcdR-T18 (Clostridioides difficile), the binding entry was “binds”.
